Format in all cases: cell-based
In test [1] the test system is A549 cells. The test is described as follows: Cell viability MTS assay, A549. To be noted: Homo sapiens, 72 h, read-out: IC50 antiproliferative, A549. The procedure: (§1) MTS assay was used to measure the cell viability. For single treatment, Jurkat, THP-1 and HEL (8000 cells/well), HCT116 and A549 (2000 cells/well) were seeded in 96-well plates in 100 μL complete medium. After overnight incubation, 50 μL of media containing various concentrations of compounds or the vehicle were added to each well. For cotreatment, cells were seeded in 96-well plates in 50 μL complete medium. After overnight incubation, 50 μL of Z-VAD-FMK, Nec-1, Fer-1, CQ, and other indicated compounds were added to each well. One hour later, 50 μL of media containing various concentrations of compounds were added to each well. After 72 h of treatment, 20 μL of CellTiter 96 AQueous One Solution reagent (Promega, Madison, USA) was added to each well according to manufacturer’s protocol. Plates were incubated at 37 °C for 1–2 h. The absorbance was determined at a wavelength of 490 nm using a Synergy H1 plate reader (Biotek, Winooski, VT, USA).
In general terms: Tetrazolium dyes change colour on reduction, which living cells bring about.

The subject of test [2] is Jurkat cells. The test is described as follows: Cell viability MTS assay, Jurkat. To be noted: Homo sapiens, 72 h, read-out: IC50 antiproliferative, Jurkat. The method, then:
as §1

For test [3], the system named is HCT116 cells. In words: Cell viability MTS assay, HCT116. To be noted: Homo sapiens, HCT-116, 72 h, read-out: IC50 antiproliferative, HCT116. The procedure:
as §1

In test [4] the test system is THP-1 cells. In words: Cell viability MTS assay, THP-1. As to conditions: Homo sapiens, 72 h, read-out: IC50 antiproliferative, THP-1. The procedure:
as §1

Test [5] deals with HEL cells. In words: Cell viability MTS assay, HEL. As to conditions: Homo sapiens, 72 h, read-out: IC50 antiproliferative, HEL. The procedure:
as §1

These results are taken from article PMC11345830, “Exploration of Hydrazide-Based HDAC8 PROTACs for the Treatment of Hematological Malignancies and Solid Tumors” (Journal of Medicinal Chemistry, 2024).

The IC50 is the point on the concentration scale where inhibition reaches its midpoint.

As to `O=C(CCCCCCC(=O)Nc1ccccc1)NO` [SAHA], the IC50 worked out at 3500 ± 300 nM in test [1]; 380 ± 50 nM in test [2]; 720 ± 50 nM in test [3]; 620 ± 50 nM in test [4]; 720 nM in test [5].
